# According to the supplement of paper PMC7752906:
# Counter-ions that a name gives are not always drawn. The list shows a part of the results. This data set is noisy: repeats of one test often differ as much as different tests do.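 About 40 Schistosoma mansoni schistosomula per well were imaged over time in bright field and compared with 0.1% DMSO wells. A drug counts as a hit if its Mahalanobis distance reaches 2.47 or more, three standard deviations above the DMSO control mean. Degeneracy is the fraction of worms scored opaque.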
# System: Schistosoma mansoni schistosomula
# Experiment: Mahalanobis distance of static-rate-frequency phenotype descriptors from DMSO controls (dimensionless); higher = stronger phenotypic change versus DMSO
# Conditions: 10 µM; 72 h
row,Structure (SMILES),Mahalanobis distance
1,CO[C@H]1/C=C/O[C@@]2(C)Oc3c(C)c(O)c4c(O)c(c(/C=N/N5CCN(C6CCCC6)CC5)c(O)c4c3C2=O)NC(=O)/C(C)=C\C=C\[C@H](C)[C@H](O)[C@@H](C)[C@@H](O)[C@@H](C)[C@H](OC(C)=O)[C@@H]1C [Rifapentine],inactive: 1.48
2,CN1CCC(=C2c3ccccc3C=Cc3ccccc32)CC1 [Cyproheptadine],active: 3.49
3,CC(Cc1cccc(C(F)(F)F)c1)NCCOC(=O)c1ccccc1 (stereo not given) [Benfluorex Hydrochloride],inactive: 2.32
4,CC(=O)S[C@@H]1CC2=CC(=O)CC[C@]2(C)[C@H]2CC[C@@]3(C)[C@@H](CC[C@@]34CCC(=O)O4)[C@H]12 [Spironolactone],active: 4.26
5,Cc1nccnc1N1CCCCC1 [Modaline Sulfate],inactive: 2.07
6,C=C1CC[C@H](O)C/C1=C/C=C1\CCC[C@]2(C)[C@@H]([C@H](C)CCCC(C)C)CC[C@@H]12 [Cholecalciferol],inactive: 1.66
7,Oc1ccc2ccccc2c1 [Beta-naphthol],active: 3.05
8,CN1CCN(C2=Nc3ccccc3Oc3ccc(Cl)cc32)CC1 [Loxapine Succinate],inactive: 1.57
9,CC(C)CC(N)=O [Isovaleramide],inactive: 1.18
10,CC(=O)OCC(=O)[C@@]1(O)[C@@H](C)C[C@H]2[C@@H]3CCC4=CC(=O)C=C[C@]4(C)[C@@]3(F)[C@@H](O)C[C@@]21C [Betamethasone Acetate],inactive: 1.7
11,O=C(O)c1cn(-c2ccc(F)cc2)c2cc(N3CCNCC3)c(F)cc2c1=O [Sarafloxacin Hydrochloride],active: 2.92
12,O=C(O)Cc1ccc(-c2ccccc2)cc1 [Felbinac],inactive: 1.5
13,CC[N+](C)(CC)CCOC(=O)C(O)(c1ccccc1)C1CCCCC1 (stereo not given) [Oxyphenonium Bromide],inactive: 1.66
14,CC1(C)OC(=O)C(OCC2CC2)=C1c1ccc(S(C)(=O)=O)cc1 [Firocoxib],inactive: 2.3
15,CCN(CC)CCOC(=O)C1(C2CCCCC2)CCCCC1 [Dicyclomine],active: 3.11
16,CCCCOCCOCCOCc1cc2c(cc1CCC)OCO2 [Piperonyl Butoxide],inactive: 2.23
17,CC(=O)Oc1ccccc1C(=O)Nc1ncc([N+](=O)[O-])s1 [Nitazoxanide],inactive: 1.93
18,CN(C)CCCN1c2ccccc2Sc2ccc(C(F)(F)F)cc21 [Triflupromazine Hydrochloride],active: 2.5
19,CC(NCCC(c1ccccc1)c1ccccc1)c1ccccc1 (stereo not given) [Fendiline Hydrochloride],inactive: 2.42
20,CN(C)[C@@H]1C(O)=C(C(=O)NCN2CCCC2)C(=O)[C@@]2(O)C(O)=C3C(=O)c4c(O)cccc4[C@@](C)(O)[C@H]3C[C@@H]12 [Rolitetracycline],inactive: 1.11
21,CC(C)NC[C@@H](O)COc1cccc2ccccc12 [Dexpropranolol Hydrochloride],inactive: 1.95
22,CCc1cn([C@H]2C[C@H](O)[C@@H](CO)O2)c(=O)[nH]c1=O [Edoxudine],inactive: 2.02
23,O=S(=O)(O)NC1CCCCC1 [Cyclamic Acid],inactive: 1.28
24,CCN(CC)CCc1nc(-c2ccccc2)no1 [Oxolamine Citrate],inactive: 1.7

row,Structure (SMILES),Mahalanobis distance
1,O=c1oc2ccccc2c(O)c1Cc1c(O)c2ccccc2oc1=O [Dicumarol],inactive: 1.88
2,COc1c2occc2c(OC)c2c(=O)cc(C)oc12 [Khellin],inactive: 1.16
3,NCC(O)CC(=O)O (stereo not given) [Aminohydroxybutyric Acid],active: 4.14
4,CC(=O)OCC(CCn1cnc2cnc(N)nc21)COC(C)=O [Famciclovir],inactive: 1.66
5,C[C@H](CCC(=O)O)[C@H]1CC[C@H]2[C@@H]3[C@H](O)C[C@@H]4C[C@H](O)CC[C@]4(C)[C@H]3CC[C@]12C [Chenodiol],active: 2.48
6,CCC(=O)O[C@]1(C(=O)CCl)[C@@H](C)C[C@H]2[C@@H]3CCC4=CC(=O)C=C[C@]4(C)[C@@]3(F)[C@@H](O)C[C@@]21C [Clobetasol Propionate],active: 2.57
7,Cc1c(O)c(=O)ccn1C [Deferiprone],inactive: 1.41
8,CC(C)[C@H](N)C(=O)OCC(CO)OCn1cnc2c(=O)nc(N)[nH]c21 (stereo not given in full) [Valganciclovir Hydrochloride],active: 2.47
9,NC(=O)c1ccc([N+](=O)[O-])cc1Cl [Aklomide],inactive: 1.79
10,COc1ccc(C2CNC(=O)C2)cc1OC1CCCC1 (stereo not given) [Rolipram],inactive: 1.9
11,C[C@H]1C[C@@H]2[C@H]([C@@H](O)C[C@@]3(C)[C@H]2CC[C@]3(O)C(=O)CO)[C@@]2(C)C=CC(=O)C=C12 [Methylprednisolone],inactive: 1.71
12,CCCNCC(O)COc1ccccc1C(=O)CCc1ccccc1 (stereo not given) [Propafenone],inactive: 1.93
13,CN(C)c1nc(N(C)C)nc(N(C)C)n1 [Altretamine],inactive: 2.03
14,CC(C)NCC(O)c1ccc2ccccc2c1 (stereo not given) [Pronetalol Hydrochloride],inactive: 1.78
15,CC(=O)O[C@]1(C(C)=O)CC[C@H]2[C@@H]3C[C@H](C)C4=CC(=O)CC[C@]4(C)[C@H]3CC[C@@]21C [Medroxyprogesterone Acetate],inactive: 2.4
16,O=c1cc[nH]c(=S)[nH]1 [2-thiouracil],active: 3.33
17,CC(=O)OC1CC2CCC1(C)C2(C)C (stereo not given) [Bornyl Acetate],inactive: 2.3
18,CC(C)C[C@@H]1NC(=O)[C@H](CCCN)NC(=O)[C@H](C(C)C)NC(=O)[C@H](Cc2ccc(O)cc2)N[C@@H](CCC(=O)O)C(=O)N[C@@H](CC(N)=O)C(=O)[C@@H](Cc2ccccc2)NC(=O)[C@H](Cc2ccccc2)NC(=O)[C@@H]2CCCN2C(=O)[C@@H](Cc2ccccc2)NC1=O [Tyrothricin],active: 2.8
19,Nc1ccc2cc3ccc(N)cc3nc2c1 [Proflavine Hemisulfate],inactive: 2.47
20,CC(=O)Nc1ncc([N+](=O)[O-])s1 [Nithiamide],active: 2.93
21,CCCCCCCCCCCCCCCC(=O)O[C@@H]1[C@@H](O)[C@@H](O)[C@@H]([C@H](NC(=O)[C@@H]2C[C@@H](CCC)CN2C)[C@H](C)Cl)O[C@@H]1SC [Clindamycin Palmitate Hydrochloride],inactive: 2.13
22,Nc1ccc(S(=O)(=O)Nc2ccnn2-c2ccccc2)cc1 [Sulfaphenazole],inactive: 1.74
23,CNCC(O)c1cccc(O)c1 [L-phenylephrine],active: 2.59
24,CO/N=C(\C(=O)N[C@@H]1C(=O)N2C(C(=O)O)=C(COC(N)=O)CS[C@H]12)c1ccco1 [Cefuroxime],active: 3.04

# By substructure: those above containing an aryl methoxy group.
row,Structure (SMILES),Mahalanobis distance
2,COc1c2occc2c(OC)c2c(=O)cc(C)oc12 [Khellin],inactive: 1.16
10,COc1ccc(C2CNC(=O)C2)cc1OC1CCCC1 (stereo not given) [Rolipram],inactive: 1.9

# Random excerpt: 2 records from the list.
row,Structure (SMILES),Mahalanobis distance
6,CCC(=O)O[C@]1(C(=O)CCl)[C@@H](C)C[C@H]2[C@@H]3CCC4=CC(=O)C=C[C@]4(C)[C@@]3(F)[C@@H](O)C[C@@]21C [Clobetasol Propionate],active: 2.57
10,CC(=O)OCC(=O)[C@@]1(O)[C@@H](C)C[C@H]2[C@@H]3CCC4=CC(=O)C=C[C@]4(C)[C@@]3(F)[C@@H](O)C[C@@]21C [Betamethasone Acetate],inactive: 1.7

# Next part.

row,Structure (SMILES),Mahalanobis distance
1,CCC(=O)c1c(O)cc(O)cc1O [Flopropione],active: 3.29
2,C1CCN2C[C@@H]3C[C@@H](CN4CCCC[C@@H]34)[C@H]2C1 [Sparteine Sulfate],inactive: 1.53
3,O=C1C2CC3CC1CC(O)(C3)C2 [Idramantone],inactive: 1.29
4,CCN1CCN(c2cc3c(cc2F)c(=O)c(C(=O)O)cn3C2CC2)CC1 [Enrofloxacin],inactive: 1.15
5,O=C(O)COC(=O)Cc1ccccc1Nc1c(Cl)cccc1Cl [Aceclofenac],inactive: 2.4
6,C[C@@H]1C[C@H]2[C@@H]3CCC4=CC(=O)C=C[C@]4(C)[C@@]3(F)[C@@H](O)C[C@]2(C)[C@@]1(O)C(=O)CO [Dexamethasone],inactive: 2.41
7,CC1(C)O[C@@H]2C[C@H]3[C@@H]4CCC5=CC(=O)C=C[C@]5(C)[C@@]4(F)[C@@H](O)C[C@]3(C)[C@]2(C(=O)CO)O1 [Triamcinolone Acetonide],inactive: 1.88
8,Cc1cnc(NC(=O)C2=C(O)c3ccccc3S(=O)(=O)N2C)s1 [Meloxicam],inactive: 1.77
9,COCCOC(=O)C1=C(C)NC(C)=C(C(=O)OC/C=C/c2ccccc2)C1c1cccc([N+](=O)[O-])c1 (stereo not given) [Cilnidipine],active: 4.5
10,CCn1nc(C(=O)O)c(=O)c2cc3c(cc21)OCO3 [Cinoxacin],inactive: 1.54
11,C[C@H]1C[C@H]2[C@@H]3CCC4=CC(=O)C=C[C@]4(C)[C@@]3(F)[C@@H](O)C[C@]2(C)[C@@]1(O)C(=O)CO [betamethasone],inactive: 1.75
12,CC1=Nc2ccc(Cl)cc2S(=O)(=O)N1 [Diazoxide],active: 4.47
13,Cc1ccc(Cl)c(Nc2ccccc2C(=O)O)c1Cl [Meclofenamic Acid],inactive: 1.57
14,C=C1/C(=C\C=C2/CCC[C@]3(C)[C@@H]([C@H](C)/C=C/[C@@H](O)C4CC4)CC[C@@H]23)C[C@@H](O)C[C@@H]1O [Calcipotriene],inactive: 2.14
15,CC(=O)c1ccc(S(=O)(=O)NC(=O)NC2CCCCC2)cc1 [Acetohexamide],inactive: 2.14
16,COc1ccc(CN(CCN(C)C)c2ccccn2)cc1 [Pyrilamine],active: 3.7
17,CCCNC(C)C(=O)Nc1ccccc1C (stereo not given) [Prilocaine],inactive: 2.1
18,CC(COc1ccccc1)N(CCCl)Cc1ccccc1 (stereo not given) [Phenoxybenzamine],inactive: 2.21
19,Cc1nc2ccccc2n1Cc1ccc(Cl)cc1 [Chlormidazole],active: 2.88
20,Cc1cc(=O)oc2cc(O)ccc12 [Hymecromone],inactive: 2.05
21,CCCN[C@H]1CCc2nc(N)sc2C1 [Pramipexole],active: 5.4
22,CCOC(=O)OC(C)OC(=O)[C@@H]1N2C(=O)[C@@H](NC(=O)[C@H](N)c3ccccc3)[C@H]2SC1(C)C (stereo not given in full) [Bacampicillin Hydrochloride],inactive: 2.37
